{
  "source": "paper PMC7819943",
  "about": "“Rice protein-binding microarrays: a tool to detect cis-acting elements near promoter regions in rice”",
  "note": "This is one part of the list.",
  "data": [
    {"target": "T1, OsSMF1 (Oryza sativa, UniProt Q6ZLB0 1-436)", "T1 sequence": "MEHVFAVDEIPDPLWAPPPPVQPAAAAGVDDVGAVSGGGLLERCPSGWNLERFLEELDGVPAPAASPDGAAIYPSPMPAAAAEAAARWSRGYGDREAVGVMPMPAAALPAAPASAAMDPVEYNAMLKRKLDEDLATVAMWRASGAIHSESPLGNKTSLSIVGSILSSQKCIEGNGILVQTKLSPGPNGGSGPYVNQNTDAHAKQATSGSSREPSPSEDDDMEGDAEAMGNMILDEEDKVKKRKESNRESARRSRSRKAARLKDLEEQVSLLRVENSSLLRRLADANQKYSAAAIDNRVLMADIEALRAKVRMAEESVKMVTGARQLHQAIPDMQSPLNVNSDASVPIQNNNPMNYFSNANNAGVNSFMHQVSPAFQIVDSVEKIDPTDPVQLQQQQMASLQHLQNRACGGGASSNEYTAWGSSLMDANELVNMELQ", "assay": "protein-binding microarray (RPBM); PBS, 2% BSA, 51.3 ng/ul salmon testes DNA, 50 uM zinc acetate, 200 nM TF, 25 C, 1 h; high values mean tight binding", "conditions": "protein: recombinant; tags: N-terminal polyhistidine and DsRed monomer fusion (pET32a); chain copies: 2; label: CyDye5-dUTP incorporated in the synthesized complementary strand; 3' TTTTT single-stranded linker to array surface; dsDNA, one strand shown", "procedure,_shortened": "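Per-feature fluorescence intensity (arbitrary units), read on an Axon 4000B scanner, is the binding signal. Transcription factors carrying an N-terminal polyhistidine tag and DsRed fusion were expressed in E. coli BL21-CodonPlus and purified on Ni–NTA. A custom Agilent array, made double-stranded by primer extension with Cy5-dUTP and blocked with 2% BSA, was incubated with 200 nM protein in PBS, 2% BSA, salmon testes DNA and 50 µM zinc acetate at 25 °C for 1 h and then washed.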", "values": [
      {"sequence": "ATAACTACTTGATATGTGTCACCACAAGATTTACACAAACCGGAGTCACCTAGTGCAG", "binding signal": "4810 fluorescence intensity (a.u.)"},
      {"sequence": "GGTAATGGCGTTTCTGGTCCTACCTGGATGCACTGGGTCTCGGAGTCACCTAGTGCAG", "binding signal": "3180 fluorescence intensity (a.u.)"},
      {"sequence": "TGCCGGTCCGACGGCCAGGATCCGTCCACGTGTCCTCCCGCGGAGTCACCTAGTGCAG", "binding signal": "16200 fluorescence intensity (a.u.)"},
      {"sequence": "GGGGCGCCGGGAAGGAGGGCGCTGTGTGGGAGGGAGGGAGCGGAGTCACCTAGTGCAG", "binding signal": "3370 fluorescence intensity (a.u.)"},
      {"sequence": "TTTGCCCATTTTATTCCCTTGCGTCATCCATTTACTGCTTCGGAGTCACCTAGTGCAG", "binding signal": "13800 fluorescence intensity (a.u.)"},
      {"sequence": "TCCTTTGCCTTCAAAGGCATCGTGCCTTTGTCACTTACATCGGAGTCACCTAGTGCAG", "binding signal": "17100 fluorescence intensity (a.u.)"},
      {"sequence": "TAACTGCGTTGACATGTCGCCTTGCTATACTCACATTCTTCGGAGTCACCTAGTGCAG", "binding signal": "3240 fluorescence intensity (a.u.)"},
      {"sequence": "ACTGGACACCATAGCTTCTTCGCCCGTCGTTTGCCTATCTCGGAGTCACCTAGTGCAG", "binding signal": "3190 fluorescence intensity (a.u.)"},
      {"sequence": "ACGAGCTCCGGGGAGGAGAAGTGGCAGTGCTTGGCGAGGACGGAGTCACCTAGTGCAG", "binding signal": "3250 fluorescence intensity (a.u.)"},
      {"sequence": "CTCCAATTTCACCAGTTCGACTATCCACGCCATATCCTCTCGGAGTCACCTAGTGCAG", "binding signal": "3660 fluorescence intensity (a.u.)"},
      {"sequence": "GTGTTTGAGTTGGATTATACGCTCGTTTGCTTTTGGAAATCGGAGTCACCTAGTGCAG", "binding signal": "4530 fluorescence intensity (a.u.)"},
      {"sequence": "TGATGGCCCAGCCCGCCAGCCACCTCCGCAAGTCCGCATCCGGAGTCACCTAGTGCAG", "binding signal": "30200 fluorescence intensity (a.u.)"},
      {"sequence": "CTCCGTTCTACTCCAGTACACTGTAACACTGTTGTTGGCGCGGAGTCACCTAGTGCAG", "binding signal": "14500 fluorescence intensity (a.u.)"},
      {"sequence": "CCATTAACAAACTAAAATGACAGCTCCGCACTGCCCCAACCGGAGTCACCTAGTGCAG", "binding signal": "4980 fluorescence intensity (a.u.)"},
      {"sequence": "CTAGCTTACACAGGTGTGTGGGCCCACCACGCGTGCTGGGCGGAGTCACCTAGTGCAG", "binding signal": "3650 fluorescence intensity (a.u.)"},
      {"sequence": "CTTCTGGTCAAAGGATGACATCAATCCCTATCATCTCATCCGGAGTCACCTAGTGCAG", "binding signal": "4630 fluorescence intensity (a.u.)"},
      {"sequence": "CAGTTCCTAATTTTGCACTGAATCAGCGCCACTGATGCATCGGAGTCACCTAGTGCAG", "binding signal": "3460 fluorescence intensity (a.u.)"},
      {"sequence": "TTATTATTATTGGATGGTTAGATGACAAATCCAACCTCACCGGAGTCACCTAGTGCAG", "binding signal": "3640 fluorescence intensity (a.u.)"},
      {"sequence": "TGCGGAGCGTACATGTGGCCCAATAGTGTGGGCGGCCTGGCGGAGTCACCTAGTGCAG", "binding signal": "3360 fluorescence intensity (a.u.)"},
      {"sequence": "TACTATTAGGTATGTGGTATCCATAACCCTGACACATACCCGGAGTCACCTAGTGCAG", "binding signal": "3600 fluorescence intensity (a.u.)"},
      {"sequence": "CGTGAACCCCATGTGTCAGCCTCATCTCCCTTCTTCCCTCCGGAGTCACCTAGTGCAG", "binding signal": "3290 fluorescence intensity (a.u.)"},
      {"sequence": "TTCGTGATTTCGCACGGCTACTATCGTAGATCGAAGGGGACGGAGTCACCTAGTGCAG", "binding signal": "4040 fluorescence intensity (a.u.)"},
      {"sequence": "AATTCGTTTTGAACACCATACGTCAGTTCGTCTAGAAGCACGGAGTCACCTAGTGCAG", "binding signal": "4360 fluorescence intensity (a.u.)"},
      {"sequence": "ACTACCATTGCTGATGTCGTTGTCACCGCTACGTCATCATCGGAGTCACCTAGTGCAG", "binding signal": "16700 fluorescence intensity (a.u.)"},
      {"sequence": "GACTTGCATTATGAAACGGAGGAAGTATGTCGCCAGGCTCCGGAGTCACCTAGTGCAG", "binding signal": "4670 fluorescence intensity (a.u.)"},
      {"sequence": "CATACGCGCGTGAACACTCCACATCAGCCTTTTCGAAGACCGGAGTCACCTAGTGCAG", "binding signal": "9790 fluorescence intensity (a.u.)"},
      {"sequence": "CACAAGTAGCAAGCCAAGTAGATTGTTGGTTTGCTTCCCTCGGAGTCACCTAGTGCAG", "binding signal": "3410 fluorescence intensity (a.u.)"},
      {"sequence": "GTTCGCGGGCCGCGAACGTCCACGTACTAGACGCCCCTCACGGAGTCACCTAGTGCAG", "binding signal": "4050 fluorescence intensity (a.u.)"},
      {"sequence": "CTTGATTCCTCTGTCTATTTAACGATTTGGACGAGGAAGCCGGAGTCACCTAGTGCAG", "binding signal": "18300 fluorescence intensity (a.u.)"},
      {"sequence": "GAAAATGTTATGGTCAATGACATGTGGGCCATGCAATTACCGGAGTCACCTAGTGCAG", "binding signal": "3280 fluorescence intensity (a.u.)"},
      {"sequence": "TATTTATCAATTATCCATGACGTAAGTCTTATGCAATATGCGGAGTCACCTAGTGCAG", "binding signal": "3840 fluorescence intensity (a.u.)"},
      {"sequence": "AGCATCCACACGTGCGTTTCTTTTCTTTTCTTTCCGGCCGCGGAGTCACCTAGTGCAG", "binding signal": "4020 fluorescence intensity (a.u.)"},
      {"sequence": "ATGACCCAATCAGTTGTGTCACCCTGCCATTACGCATCTCCGGAGTCACCTAGTGCAG", "binding signal": "3530 fluorescence intensity (a.u.)"},
      {"sequence": "GCGGCGTGACGCGGAGGCGCTCGCCCGGGCCATGGATGAGCGGAGTCACCTAGTGCAG", "binding signal": "23400 fluorescence intensity (a.u.)"},
      {"sequence": "CTGTCTGTCTGACCGGCTCTATGACGATAGTCAGACTTGTCGGAGTCACCTAGTGCAG", "binding signal": "3760 fluorescence intensity (a.u.)"},
      {"sequence": "ACCTACCCGACCGTTGCGTTGCCCTCCCAAAACCAAACCACGGAGTCACCTAGTGCAG", "binding signal": "3320 fluorescence intensity (a.u.)"},
      {"sequence": "TTTAGCATAACAAGAACTAAGGGCATCACCAATATATATGCGGAGTCACCTAGTGCAG", "binding signal": "4190 fluorescence intensity (a.u.)"},
      {"sequence": "TTTGAAACTTGCTGACAGTAATGATTCTACATGTCAGCCTCGGAGTCACCTAGTGCAG", "binding signal": "4230 fluorescence intensity (a.u.)"},
      {"sequence": "GTTTTGTTTTAATTCAGTAGCTACACGTACTACTAGCTTTCGGAGTCACCTAGTGCAG", "binding signal": "4210 fluorescence intensity (a.u.)"},
      {"sequence": "CGTGGTTGTTTTATCTAGGATGTGGACGTGGCATCCTATTCGGAGTCACCTAGTGCAG", "binding signal": "8330 fluorescence intensity (a.u.)"},
      {"sequence": "GGAGCGGGGTACGCATCTGTACCTGTACGGGATCCCGGCGCGGAGTCACCTAGTGCAG", "binding signal": "3750 fluorescence intensity (a.u.)"},
      {"sequence": "GCAGGTCAAGCGGTCACCCTCACTCCACCATTGTCATCTTCGGAGTCACCTAGTGCAG", "binding signal": "3390 fluorescence intensity (a.u.)"}
    ]}
  ]
}
